Results as given in paper PMC5100903 (PLoS ONE, 2016).
Some peptides are written in HELM: one residue between dots, names in brackets for other building blocks, links after the first $. Positions of bridges follow the written chain, without caps; N, C: chain ends.

Experiment: general procedure: Fmoc solid-phase peptide synthesis; pre-loaded Fmoc-Cys(Trt)-NovaSyn TGT resin; HBTU/HOBt, DIPEA
Conditions: cyclisation step
[1] = isolated yield from linear precursor

Substance	cyclisation yield [1] [%]	cyclisation yield (from linear peptide) [%]
PEPTIDE1{G.R.C.T.K.S.I.P.P.H.C.Y.P.D}$PEPTIDE1,PEPTIDE1,1:R1-14:R2|PEPTIDE1,PEPTIDE1,3:R3-11:R3$$$V2.0	19	–
PEPTIDE1{G.R.C.T.K.S.K.P.P.H.C.F.P.D}$PEPTIDE1,PEPTIDE1,1:R1-14:R2|PEPTIDE1,PEPTIDE1,3:R3-11:R3$$$V2.0	16	–
PEPTIDE1{N.R.C.T.K.S.I.P.P.H.C.F.P.D}$PEPTIDE1,PEPTIDE1,1:R1-14:R2|PEPTIDE1,PEPTIDE1,3:R3-11:R3$$$V2.0	25	–
cyclo(CFPDGRCTKSIPPH) (disulfide 1-7)	19	–
cyclo(CFPDGRCTRSIPPH) (disulfide 1-7)	24	–
cyclo(CTKSIPPHCWPDGR) (disulfide 1-9)	25	–
cyclo(CTRSIPPHCWPDGR) (disulfide 1-9)	–	24
